No constants are given. Whether binding was seen depends on the method and setting. Binding seen in cells or lysates may run through a third protein. Some results given as binding are weak or reduced against the parent protein; the word gives no strength. For part of these data: Sequences can lack the tags named with a protein.
T1: TAP-tagged yeast exosome subunit Rrp46 (Saccharomyces cerevisiae) (UniProt P53256)
T1 sequence: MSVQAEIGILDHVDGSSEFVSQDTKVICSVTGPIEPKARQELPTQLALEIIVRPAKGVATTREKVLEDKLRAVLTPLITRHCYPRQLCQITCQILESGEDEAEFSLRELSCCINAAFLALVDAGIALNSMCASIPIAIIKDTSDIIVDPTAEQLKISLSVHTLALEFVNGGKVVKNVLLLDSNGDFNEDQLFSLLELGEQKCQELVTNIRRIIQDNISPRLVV

T2: exosome subunit Rrp4 (Saccharomyces cerevisiae) (UniProt P38792)
T2 sequence: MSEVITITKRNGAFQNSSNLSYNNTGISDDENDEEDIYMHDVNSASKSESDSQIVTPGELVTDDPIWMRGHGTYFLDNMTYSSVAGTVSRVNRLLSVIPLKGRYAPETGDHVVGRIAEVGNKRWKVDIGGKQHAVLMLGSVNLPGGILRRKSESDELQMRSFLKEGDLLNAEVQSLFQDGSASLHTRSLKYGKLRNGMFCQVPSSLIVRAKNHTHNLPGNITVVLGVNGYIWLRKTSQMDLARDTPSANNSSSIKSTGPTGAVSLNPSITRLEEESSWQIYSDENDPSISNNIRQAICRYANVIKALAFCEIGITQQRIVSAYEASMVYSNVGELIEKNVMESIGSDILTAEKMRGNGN

T3: exosome catalytic subunit Rrp44 (Saccharomyces cerevisiae) (UniProt Q08162)
T3 sequence: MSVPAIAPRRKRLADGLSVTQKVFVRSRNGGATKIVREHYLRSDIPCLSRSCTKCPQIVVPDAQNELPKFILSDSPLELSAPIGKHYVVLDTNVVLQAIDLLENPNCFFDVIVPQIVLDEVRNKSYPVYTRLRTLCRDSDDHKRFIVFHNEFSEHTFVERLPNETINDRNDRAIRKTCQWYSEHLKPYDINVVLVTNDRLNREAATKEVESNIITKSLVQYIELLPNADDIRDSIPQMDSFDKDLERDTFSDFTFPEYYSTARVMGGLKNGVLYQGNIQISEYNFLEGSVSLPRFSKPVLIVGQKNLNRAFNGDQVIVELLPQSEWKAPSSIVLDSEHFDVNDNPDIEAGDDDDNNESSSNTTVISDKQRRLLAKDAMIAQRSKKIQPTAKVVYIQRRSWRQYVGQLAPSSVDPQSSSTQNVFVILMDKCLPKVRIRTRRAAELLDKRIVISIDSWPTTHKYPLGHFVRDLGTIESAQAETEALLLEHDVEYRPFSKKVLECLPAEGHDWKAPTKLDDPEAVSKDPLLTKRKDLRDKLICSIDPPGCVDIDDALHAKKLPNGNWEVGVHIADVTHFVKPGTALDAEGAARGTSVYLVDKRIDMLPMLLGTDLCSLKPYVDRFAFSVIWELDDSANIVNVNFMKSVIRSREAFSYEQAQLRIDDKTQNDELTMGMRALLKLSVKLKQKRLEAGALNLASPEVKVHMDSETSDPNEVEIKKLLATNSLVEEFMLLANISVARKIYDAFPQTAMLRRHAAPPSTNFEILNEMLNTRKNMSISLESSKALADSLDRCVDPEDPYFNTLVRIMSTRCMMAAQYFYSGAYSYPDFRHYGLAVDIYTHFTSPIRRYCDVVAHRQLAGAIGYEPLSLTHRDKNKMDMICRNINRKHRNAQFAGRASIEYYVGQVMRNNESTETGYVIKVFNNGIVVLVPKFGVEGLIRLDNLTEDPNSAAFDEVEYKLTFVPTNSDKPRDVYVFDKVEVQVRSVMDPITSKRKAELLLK

T4: ElaB (E. coli) (UniProt P0AEH5)
T4 sequence: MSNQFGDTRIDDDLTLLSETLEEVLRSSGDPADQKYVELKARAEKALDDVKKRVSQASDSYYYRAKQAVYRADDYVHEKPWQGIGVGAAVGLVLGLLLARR

B1: exosome subunit Rrp41 (protein, UniProt P46948 1-246)
chain: MSRLEIYSPEGLRLDGRRWNELRRFESSINTHPHAADGSSYMEQGNNKIITLVKGPKEPRLKSQMDTSKALLNVSVNITKFSKFERSKSSHKNERRVLEIQTSLVRMFEKNVMLNIYPRTVIDIEIHVLEQDGGIMGSLINGITLALIDAGISMFDYISGISVGLYDTTPLLDTNSLEENAMSTVTLGVVGKSEKLSLLLVEDKIPLDRLENVLAIGIAGAHRVRDLMDEELRKHAQKRVSNASAR
B2: exosome subunit Rrp45 (protein, UniProt Q05636 1-305)
chain: MAKDIEISASESKFILEALRQNYRLDGRSFDQFRDVEITFGKEFGDVSVKMGNTKVHCRISCQIAQPYEDRPFEGLFVISTEISPMAGSQFENGNITGEDEVLCSRIIEKSVRRSGALDVEGLCIVAGSKCWAVRADVHFLDCDGGFIDASCIAVMAGLMHFKKPDITVHGEQIIVHPVNEREPVPLGILHIPICVTFSFFNPQDTEENIKGETNSEISIIDATLKEELLRDGVLTVTLNKNREVVQVSKAGGLPMDALTLMKCCHEAYSIIEKITDQILQLLKEDSEKRNKYAAMLTSENAREI
B3: Ski7 (protein, UniProt Q08491 1-747)
chain: MSLLEQLARKRIEKSKGLLSADQSHSTSKSASLLERLHKNRETKDNNAETKRKDLKTLLAKDKVKRSDFTPNQHSVSLSLKLSALKKSNSDLEKQGKSVTLDSKENELPTKRKSPDDKLNLEESWKAIKEMNHYCFLKNDPCINQTDDFAFTNFIIKDKKNSLSTSIPLSSQNSSFLSLKKHNNELLGIFVPCNLPKTTRKVAIENFNRPSPDDIIQSAQLNAFNEKLENLNIKSVPKAEKKEPINLQTPPTESIDIHSFIATHPLNLTCLFLGDTNAGKSTLLGHLLYDLNEISMSSMRELQKKSSNLDPSSSNSFKVILDNTKTERENGFSMFKKVIQVENDLLPPSSTLTLIDTPGSIKYFNKETLNSILTFDPEVYVLVIDCNYDSWEKSLDGPNNQIYEILKVISYLNKNSACKKHLIILLNKADLISWDKHRLEMIQSELNYVLKENFQWTDAEFQFIPCSGLLGSNLNKTENITKSKYKSEFDSINYVPEWYEGPTFFSQLYLLVEHNMNKIETTLEEPFVGTILQSSVLQPIAEINYVSLKVLINSGYIQSGQTIEIHTQYEDFHYYGIVSRMKNSKQILETNTKNNISVGLNPDILEVLVKIHNTEDFTKKQFHIRKGDIIIHSRKTNTLSPNLPNTLKLLALRLIKLSIQTHALSDPVDLGSELLLYHNLTHNAVKLVKILGTNDISINPNQSLIVEVEIIEPDFALNVIDSKYITNNIVLTSIDHKVIAVGRIACQ
B4: translation initiation factor Tif1 (protein, UniProt P10081 1-395)
chain: MSEGITDIEESQIQTNYDKVVYKFDDMELDENLLRGVFGYGFEEPSAIQQRAIMPIIEGHDVLAQAQSGTGKTGTFSIAALQRIDTSVKAPQALMLAPTRELALQIQKVVMALAFHMDIKVHACIGGTSFVEDAEGLRDAQIVVGTPGRVFDNIQRRRFRTDKIKMFILDEADEMLSSGFKEQIYQIFTLLPPTTQVVLLSATMPNDVLEVTTKFMRNPVRILVKKDELTLEGIKQFYVNVEEEEYKYECLTDLYDSISVTQAVIFCNTRRKVEELTTKLRNDKFTVSAIYSDLPQQERDTIMKEFRSGSSRILISTDLLARGIDVQQVSLVINYDLPANKENYIHRIGRGGRFGRKGVAINFVTNEDVGAMRELEKFYSTQIEELPSDIATLLN
B5: YqjD (natural protein, E. coli, UniProt P64581 1-101, looked up)
chain: MSKEHTTEHLRAELKSLSDTLEEVLSSSGEKSKEELSKIRSKAEQALKQSRYRLGETGDAIAKQTRVAAARADEYVRENPWTGVGIGAAIGVVLGVLLSRR
notes: source: endogenous, E. coli (MG1665) lysate, log phase and stationary phase

Assays:
[1] = molecular target: T1, TAP-tagged yeast exosome subunit Rrp46 (Saccharomyces cerevisiae); experiment: cross-linking; crude Rrp46 immunoprecipitate eluted off IgG beads, 20 mM HEPES pH 8.0, 150 mM NaCl, 40 µg protein treated with Leiker (bAL2) at RT for 1 hr; streptavidin enrichment, LC-MS/MS, pLink
[2] = molecular target: T2, exosome subunit Rrp4 (Saccharomyces cerevisiae); experiment: as above
[3] = molecular target: T3, exosome catalytic subunit Rrp44 (Saccharomyces cerevisiae); experiment: as above
ElaB (E. coli) = molecular target: T4, ElaB (E. coli); experiment: cross-linking; quantitative CXMS: log phase and stationary phase E. coli (MG1665) lysates (100 µg each, 50 mM HEPES pH 8.0, 150 mM NaCl) cross-linked with [d0]-/[d6]-bAL2 at RT for 1 hr, forward and reverse labelling; pLink, pQuant

binding [1] | binding [2] | also measured | Binder
binds |  |  | B1
binds |  |  | B2
 | binds |  | B3
 | binds | binding [3]: binds | B4
 |  | binding (ElaB (E. coli)): binds | B5
